Numbering of substitutions follows the chain as printed. Results are given in words; binding and its absence hold for the method and conditions named. In cells and extracts the contact can be indirect. Some results given as binding are weak or reduced against the parent protein; the word gives no strength. For some of these results: Tags and fused reporters may be left off the sequences shown.
Assays:
Assay in all cases: co-IP; immunoprecipitation (anti-Flag or anti-HA agarose, 2-4 h at 4 °C) from whole cell lysates of co-transfected 293T cells; EBC lysis buffer, four washes with NETN buffer, immunoblot; in some panels with HA-S6K1-R3A or knock-down of 14-3-3γ
Flag-PDK1-S549D = target: T1, Flag-PDK1-S549D (UniProt O15530)
T1 sequence: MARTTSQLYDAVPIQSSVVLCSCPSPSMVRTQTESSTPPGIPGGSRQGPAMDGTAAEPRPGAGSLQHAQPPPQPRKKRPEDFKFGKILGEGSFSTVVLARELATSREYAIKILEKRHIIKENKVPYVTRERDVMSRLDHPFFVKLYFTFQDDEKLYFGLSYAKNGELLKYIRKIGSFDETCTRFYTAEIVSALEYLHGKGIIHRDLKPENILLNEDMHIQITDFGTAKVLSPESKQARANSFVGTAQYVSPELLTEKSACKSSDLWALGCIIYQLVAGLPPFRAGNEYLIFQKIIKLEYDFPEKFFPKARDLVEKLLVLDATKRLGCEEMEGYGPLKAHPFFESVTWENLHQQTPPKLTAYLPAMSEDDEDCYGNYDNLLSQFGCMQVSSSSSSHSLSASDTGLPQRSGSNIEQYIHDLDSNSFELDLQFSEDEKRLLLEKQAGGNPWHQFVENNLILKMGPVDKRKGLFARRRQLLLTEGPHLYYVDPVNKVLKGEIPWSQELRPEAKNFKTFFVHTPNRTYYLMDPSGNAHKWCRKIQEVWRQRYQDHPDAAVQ

Sequences of proteins named here, by UniProt entry; tags and fusion partners are left off.
UniProt P31749: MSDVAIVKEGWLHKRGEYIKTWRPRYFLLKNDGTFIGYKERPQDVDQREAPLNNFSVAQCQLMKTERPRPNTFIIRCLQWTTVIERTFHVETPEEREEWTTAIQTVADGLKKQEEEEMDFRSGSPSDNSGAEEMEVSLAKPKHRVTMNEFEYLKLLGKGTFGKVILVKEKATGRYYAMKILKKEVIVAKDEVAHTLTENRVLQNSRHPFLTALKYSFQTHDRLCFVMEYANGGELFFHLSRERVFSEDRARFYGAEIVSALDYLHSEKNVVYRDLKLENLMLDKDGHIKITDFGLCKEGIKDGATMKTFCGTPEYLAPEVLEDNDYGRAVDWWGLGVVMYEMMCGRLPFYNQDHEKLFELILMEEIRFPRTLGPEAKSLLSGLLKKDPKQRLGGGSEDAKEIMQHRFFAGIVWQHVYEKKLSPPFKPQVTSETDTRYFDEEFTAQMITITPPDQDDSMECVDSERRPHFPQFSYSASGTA

Flag-PDK1-R546P = target: T2, Flag-PDK1-R546P (UniProt O15530)
T2 sequence: T1 sequence with R546P, D549S

PDK1-S549D-P551A = target: T3, PDK1-S549D-P551A (UniProt O15530)
T3 sequence: T1 sequence with P551A

Flag-PDK1-S549N = target: T4, Flag-PDK1-S549N (UniProt O15530)
T4 sequence: T1 sequence with D549N

Measured: binding

HA-AKT1 (from UniProt P31749 1-480) (enzyme)
binds: all assays above
